From publication PMC7605537
No constants are given. Whether binding was seen depends on the method and setting. In cells and extracts the contact can be indirect. Some entries that bind do so weakly or less than the wild type. Sequences can lack the tags named with a protein.

Amino acid sequences for entries named in this document (tags omitted).
UniProt P63208: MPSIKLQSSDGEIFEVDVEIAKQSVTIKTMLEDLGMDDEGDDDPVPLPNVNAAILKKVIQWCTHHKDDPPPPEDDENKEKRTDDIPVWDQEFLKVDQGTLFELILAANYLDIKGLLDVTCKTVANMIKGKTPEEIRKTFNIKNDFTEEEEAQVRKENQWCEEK

Molecular target: T1, HA-FBXO2 (F-box protein 2) (UniProt Q9UK22)
T1 sequence: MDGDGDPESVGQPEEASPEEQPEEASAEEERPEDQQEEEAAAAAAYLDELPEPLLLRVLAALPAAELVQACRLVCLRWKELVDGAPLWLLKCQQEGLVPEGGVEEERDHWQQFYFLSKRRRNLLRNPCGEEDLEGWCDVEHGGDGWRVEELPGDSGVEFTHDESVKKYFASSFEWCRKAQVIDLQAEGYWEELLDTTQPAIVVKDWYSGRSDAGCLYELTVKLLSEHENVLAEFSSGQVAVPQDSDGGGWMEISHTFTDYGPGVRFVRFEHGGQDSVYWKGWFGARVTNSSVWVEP
Experiment: co-IP; I1061T human fibroblasts electroporated with HA-FBXO2, 48 h later treated with 2 mM LLOMe for 2 h (or vehicle); cells cross-linked with DSP, lysed in 1% NP-40 buffer pH 7.4; immunoprecipitated with HA antibody or Ctrl IgG; blots for LAMP2 and Skp1

Skp1 (S phase kinase-associated protein 1) (from UniProt P63208 1-163)
binding: binds
